For 1 substance, binding results are on record in article PMC11576762.

Sequences of proteins named here, by UniProt entry; tags and fusion partners are left off.
UniProt Q8NHX9: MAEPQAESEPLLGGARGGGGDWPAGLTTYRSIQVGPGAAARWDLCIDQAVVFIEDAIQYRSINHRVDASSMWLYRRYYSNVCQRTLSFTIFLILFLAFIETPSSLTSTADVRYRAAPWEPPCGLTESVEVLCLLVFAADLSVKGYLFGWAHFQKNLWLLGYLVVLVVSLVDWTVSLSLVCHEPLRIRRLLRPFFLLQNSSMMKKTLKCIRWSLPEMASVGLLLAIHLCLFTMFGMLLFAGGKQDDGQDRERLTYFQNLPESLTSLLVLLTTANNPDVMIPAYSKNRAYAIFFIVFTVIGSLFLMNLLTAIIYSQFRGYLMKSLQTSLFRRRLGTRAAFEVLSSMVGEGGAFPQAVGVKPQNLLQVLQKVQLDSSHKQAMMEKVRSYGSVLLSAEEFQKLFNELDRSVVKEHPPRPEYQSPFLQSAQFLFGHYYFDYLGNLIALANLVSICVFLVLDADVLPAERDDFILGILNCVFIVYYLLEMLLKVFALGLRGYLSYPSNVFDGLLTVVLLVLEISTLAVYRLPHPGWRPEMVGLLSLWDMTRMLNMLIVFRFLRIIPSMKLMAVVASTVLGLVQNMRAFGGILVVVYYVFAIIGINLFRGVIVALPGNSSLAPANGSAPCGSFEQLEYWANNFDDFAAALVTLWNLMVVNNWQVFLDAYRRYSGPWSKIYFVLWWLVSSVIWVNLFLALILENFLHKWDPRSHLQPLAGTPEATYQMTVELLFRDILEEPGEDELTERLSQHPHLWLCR
UniProt P51149: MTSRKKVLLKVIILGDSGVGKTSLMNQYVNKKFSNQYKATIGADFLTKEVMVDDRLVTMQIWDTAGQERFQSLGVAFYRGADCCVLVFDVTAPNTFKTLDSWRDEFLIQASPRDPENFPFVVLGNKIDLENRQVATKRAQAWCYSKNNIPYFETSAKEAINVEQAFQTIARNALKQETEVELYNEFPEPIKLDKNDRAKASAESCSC

No constants are given. Whether binding was seen depends on the method and setting. Binding seen in cells or lysates may run through a third protein. Some binding calls cover weakened binding; strength is not graded here.

This assay has as its target hTPC2-myc (Myc-tagged TPC2) (human) (UniProt Q8NHX9). Put plainly: co-IP; HEK293 co-transfected; lysis in PBS, 1% Triton X-100 with protease and phosphatase inhibitors; Myc-tagged TPC2 precipitated with anti-Myc magnetic agarose beads, overnight at 4 °C, three washes; Western blot. (A western blot detects proteins with antibodies after separation by electrophoresis.)

For “Rab7a as co-expressed for the co-immunoprecipitation (from UniProt P51149 1-207)”, the binding result is reported as “binds”.
